The source of these data is article PMC7280518.

Amino acid sequences for entries named in this document (tags omitted).
UniProt Q9WTZ1: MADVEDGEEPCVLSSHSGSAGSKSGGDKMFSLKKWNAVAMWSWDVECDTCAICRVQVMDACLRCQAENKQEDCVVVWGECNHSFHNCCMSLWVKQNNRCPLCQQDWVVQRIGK

Results are given in words; binding and its absence hold for the method and conditions named. For some assays here: In cells and extracts the contact can be indirect. Some entries that bind do so weakly or less than the wild type.

Assay [1] has as its target Human Cullin 5 (CUL5), full-length (human) (UniProt Q93034). In words: pull-down + SEC; sub-complexes co-expressed in E. coli, or lysates combined, then Ni-NTA (His8 on ASB9, His6 on CUL5) and Superdex S200; composition by SEC, SDS-PAGE and LC-MS/MS. (In general: In gel filtration, larger molecules generally elute earlier.)
Assay [2] shares this target. In words: cryo-EM structure; CUL5-RBX2 co-expressed in E. coli and purified as a complex; 1-5 uM, 0.01-0.05% beta-OG, 20 degree tilt; 5.2 A (GSFSC); both purified.

In the case of “Mouse RBX2 (RING-box protein 2) (from UniProt Q9WTZ1 1-113)”, the binding result in assay [1] and in assay [2] was “binds” each time.
